From PMC6430823
These are yes or no findings as the source states them, for the method shown. In cells and extracts the contact can be indirect. Some results given as binding are weak or reduced against the parent protein; the word gives no strength.

Amino acid sequences for entries named in this document (tags omitted).
UniProt O09106: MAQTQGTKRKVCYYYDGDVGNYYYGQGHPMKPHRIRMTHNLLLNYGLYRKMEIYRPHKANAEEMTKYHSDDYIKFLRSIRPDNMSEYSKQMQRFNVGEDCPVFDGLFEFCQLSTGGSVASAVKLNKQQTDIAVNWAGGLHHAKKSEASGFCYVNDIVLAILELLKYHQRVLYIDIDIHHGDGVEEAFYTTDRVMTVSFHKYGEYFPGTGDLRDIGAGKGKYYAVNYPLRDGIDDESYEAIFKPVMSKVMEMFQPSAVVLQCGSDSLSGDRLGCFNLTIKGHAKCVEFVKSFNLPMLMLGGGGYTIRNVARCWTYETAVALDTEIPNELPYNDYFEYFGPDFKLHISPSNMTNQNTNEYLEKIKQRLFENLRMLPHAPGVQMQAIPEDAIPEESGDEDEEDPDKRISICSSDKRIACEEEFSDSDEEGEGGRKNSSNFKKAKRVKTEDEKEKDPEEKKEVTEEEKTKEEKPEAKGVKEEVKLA

Target: T1, SMARCAD1 (endogenous, mouse embryonic stem cells) (mouse (endogenous in mouse ESCs)) (UniProt Q04692)
T1 sequence: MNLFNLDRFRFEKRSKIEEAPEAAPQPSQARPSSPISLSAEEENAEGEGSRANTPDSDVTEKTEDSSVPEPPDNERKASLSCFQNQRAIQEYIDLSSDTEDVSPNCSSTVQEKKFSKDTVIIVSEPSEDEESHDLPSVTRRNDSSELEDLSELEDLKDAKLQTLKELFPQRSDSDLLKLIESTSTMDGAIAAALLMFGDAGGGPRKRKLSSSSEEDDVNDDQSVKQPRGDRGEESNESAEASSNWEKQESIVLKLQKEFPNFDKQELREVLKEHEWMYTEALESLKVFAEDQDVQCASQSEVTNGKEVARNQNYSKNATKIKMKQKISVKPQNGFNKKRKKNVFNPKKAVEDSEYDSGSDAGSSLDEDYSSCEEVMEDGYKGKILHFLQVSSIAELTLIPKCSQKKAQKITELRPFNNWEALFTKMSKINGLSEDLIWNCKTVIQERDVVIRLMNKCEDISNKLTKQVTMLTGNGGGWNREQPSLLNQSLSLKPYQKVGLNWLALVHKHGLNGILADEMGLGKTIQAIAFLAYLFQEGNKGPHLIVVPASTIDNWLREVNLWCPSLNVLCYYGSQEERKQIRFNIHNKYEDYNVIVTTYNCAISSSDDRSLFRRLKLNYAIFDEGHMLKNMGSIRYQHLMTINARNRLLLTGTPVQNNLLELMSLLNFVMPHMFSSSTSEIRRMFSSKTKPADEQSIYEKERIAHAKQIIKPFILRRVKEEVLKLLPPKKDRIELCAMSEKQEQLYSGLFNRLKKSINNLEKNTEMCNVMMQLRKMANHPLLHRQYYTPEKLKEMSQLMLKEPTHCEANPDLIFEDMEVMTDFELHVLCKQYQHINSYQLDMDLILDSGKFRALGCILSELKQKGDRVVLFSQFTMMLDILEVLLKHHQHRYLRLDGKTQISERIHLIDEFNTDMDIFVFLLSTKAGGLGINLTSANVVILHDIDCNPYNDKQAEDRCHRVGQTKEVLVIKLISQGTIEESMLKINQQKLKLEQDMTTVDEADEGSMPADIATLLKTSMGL
Test: co-IP; SMARCAD1-specific antibody on mESC nuclear extract (150 μg), with 150 units/ml Benzonase and 0.1 μg/μl ethidium bromide; Protein G Dynabeads; washes with 100 mM KCl, 0.05% Triton X-100; western blot

With “HDAC1 (endogenous, mouse embryonic stem cells) (from UniProt O09106 1-482)” as the substance, how does the binding read?
The binding was “binds”.
